From PMC5673186 come the findings set out here.

The chains behind the UniProt entries cited, without tags or fusion partners. Where a name states a change or a piece, a line headed by the entry shows the natural chain unless it says otherwise. Residues count along the entry.
UniProt Q9HCN6, residues 21-267: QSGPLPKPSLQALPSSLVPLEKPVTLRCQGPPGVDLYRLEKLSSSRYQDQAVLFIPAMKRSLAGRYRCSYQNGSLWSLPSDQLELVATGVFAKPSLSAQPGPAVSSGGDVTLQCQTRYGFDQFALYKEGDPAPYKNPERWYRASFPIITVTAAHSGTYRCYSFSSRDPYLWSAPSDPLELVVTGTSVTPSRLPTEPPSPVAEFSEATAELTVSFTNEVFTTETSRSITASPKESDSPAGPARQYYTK
UniProt P02453: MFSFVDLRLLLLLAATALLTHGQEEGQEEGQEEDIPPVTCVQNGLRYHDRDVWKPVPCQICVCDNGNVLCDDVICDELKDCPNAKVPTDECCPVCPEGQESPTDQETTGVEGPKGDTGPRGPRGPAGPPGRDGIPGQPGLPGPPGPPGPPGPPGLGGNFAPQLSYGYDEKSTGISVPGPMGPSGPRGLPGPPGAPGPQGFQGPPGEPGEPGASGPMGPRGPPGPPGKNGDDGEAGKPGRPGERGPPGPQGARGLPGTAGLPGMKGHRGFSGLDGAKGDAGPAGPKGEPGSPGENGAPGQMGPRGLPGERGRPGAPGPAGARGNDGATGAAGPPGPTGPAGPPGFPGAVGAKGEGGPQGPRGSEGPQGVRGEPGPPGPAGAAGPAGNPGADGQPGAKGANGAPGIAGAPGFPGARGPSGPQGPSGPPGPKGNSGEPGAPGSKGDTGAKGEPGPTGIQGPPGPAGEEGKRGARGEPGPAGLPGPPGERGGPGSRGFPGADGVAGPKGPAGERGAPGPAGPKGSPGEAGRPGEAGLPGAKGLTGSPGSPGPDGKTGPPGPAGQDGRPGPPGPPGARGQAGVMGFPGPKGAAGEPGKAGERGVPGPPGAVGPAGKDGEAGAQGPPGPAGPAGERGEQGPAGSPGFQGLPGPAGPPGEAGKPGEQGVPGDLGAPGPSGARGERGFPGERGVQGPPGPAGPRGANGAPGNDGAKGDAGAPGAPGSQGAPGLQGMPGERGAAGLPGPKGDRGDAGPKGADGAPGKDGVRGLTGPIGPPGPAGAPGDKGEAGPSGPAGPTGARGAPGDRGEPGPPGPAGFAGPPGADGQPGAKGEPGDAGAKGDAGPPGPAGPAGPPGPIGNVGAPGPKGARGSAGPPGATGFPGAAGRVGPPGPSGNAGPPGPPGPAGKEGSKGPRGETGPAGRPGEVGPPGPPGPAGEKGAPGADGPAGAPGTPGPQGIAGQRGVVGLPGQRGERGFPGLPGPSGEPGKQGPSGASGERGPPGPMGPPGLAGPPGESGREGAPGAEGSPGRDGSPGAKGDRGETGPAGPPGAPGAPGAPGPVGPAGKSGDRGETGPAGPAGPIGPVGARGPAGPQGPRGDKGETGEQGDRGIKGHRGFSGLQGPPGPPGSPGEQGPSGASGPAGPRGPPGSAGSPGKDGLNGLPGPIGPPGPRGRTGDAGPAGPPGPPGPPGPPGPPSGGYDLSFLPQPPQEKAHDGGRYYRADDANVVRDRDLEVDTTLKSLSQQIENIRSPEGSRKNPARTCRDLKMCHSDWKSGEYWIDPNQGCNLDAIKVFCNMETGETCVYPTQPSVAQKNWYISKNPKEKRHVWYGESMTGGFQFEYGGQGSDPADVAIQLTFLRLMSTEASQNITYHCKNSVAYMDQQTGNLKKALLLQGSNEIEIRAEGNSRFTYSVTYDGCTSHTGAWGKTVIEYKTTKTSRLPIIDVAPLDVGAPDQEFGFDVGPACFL

No constants are given. Whether binding was seen depends on the method and setting. Some binding calls cover weakened binding; strength is not graded here.

The target of this assay is Platelet recombinant human GPVI Protein (aa21-267) with a C-terminal His6 tag (human) (UniProt Q9HCN6). Put plainly: SPR; GPVI-His6 captured on anti-His antibody immobilised on a CM5 chip (Biacore T200); collagen flowed over as positive control; 18°C; 10 mM phosphate buffer, 2.7 mM KCl, 137 mM NaCl, pH 7.4; signals referenced to the anti-His antibody surface and normalised by capture level and molecular mass; both purified.

As to “Bovine Collagen Type I (from UniProt P02453 162-1217; P02465 80-1117)”, the binding result was “binds”.
